# Data from PubChem BioAssay AID504467 (National Center for Advancing Translational Sciences (NCATS), 2011).
# Screen size: about 330,000 compounds; about 7,700 (2.3%) were called active. Inconclusive results, whose numbers are uncertain, are shown with a selection of clear calls. The call rests on the fitted dose curve; in most records, active means well fitted inhibition curve with a large enough effect; inconclusive means small, poorly fitted or top-dose-only effect, or effect the other way; inactive means flat fitted curve, though single readings scatter. Potencies beside an inconclusive call are fits to weak or partial responses and may not hold up.
# Assay: qHTS screen for small molecules that inhibit ELG1-dependent DNA repair in human embryonic kidney (HEK293T) cells expressing luciferase-tagged ELG1; further: nearly all actives have a fitted effect of over 55% in size
# Conditions: HEK293T ELG1-luciferase reporter, luminescence, 16 h, DNA damage induced by 5-fluorouridine; activity change, negative = inhibition: at 46.1 µM (top of the series)
# Method in brief: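 Luminescence from the luciferase reporter, measured 30 min after ONE-Glo reagent at room temperature, was the read-out. Beforehand, 2,000 cells per well were exposed for 16 hr at 37 °C to 5-fluorouridine together with compound or vehicle.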
# On the % scale 0 is the no-effect control and ±100 the full control effect; potency means the concentration at half of the fitted maximal effect.
SMILES,Potency,"activity change, negative = inhibition"
CCCOc1ccc2c(C)c(CC(=O)OC)c(=O)oc2c1,"inconclusive: 10.3 µM [activator, partial curve, poor fit]",
O=C(NCCN1CCN(c2ccccc2)CC1)Nc1cccc(Br)c1,"inconclusive: 29.1 µM [inhibitor, single point]",
O=C1OCCN1C(=O)[C@H]1[C@H](c2ccc([N+](=O)[O-])cc2)C(c2ccc(F)cc2)=NN1c1ccc(Br)cc1,"inconclusive: 29.1 µM [inhibitor, single point]",
CCC(CC)COC(=O)C1=C(C)NC(=O)NC1c1cccc([N+](=O)[O-])c1 (configuration not stated),,inactive: -7.69%
C[C@@H](c1ccccc1)N1C[C@H]2CCCN2c2cc(Br)ccc2S1(=O)=O,"inconclusive: 16.4 µM [inhibitor, single point]",
Cc1cc2c(s1)c1cnn(-c3ccccc3)c(=O)c1n2C,,inactive: 2.66%
O=C(Nc1nc(-c2ccccc2)cs1)c1ccc2c(=O)n3c(nc2c1)CCCCC3,active: 3.66 µM,
CS(=O)(=O)N(Cc1ccco1)CC(O)Cn1cc(C=O)c2ccccc21 (configuration not stated),"inconclusive: 20.6 µM [inhibitor, single point]",
O=C1CCCN1c1ccc(CNS(=O)(=O)c2ccc(F)cc2)cc1,,inactive: 19.4%
Fc1ccc(-c2cn(-c3ccccc3)c3[n+]2CCS3)cc1,active: 20.6 µM,
CCOc1cc(CNC2CCCC2)c(Cl)cc1OCC(=O)Nc1ccccc1,,inactive: 0%
Cc1cccc(C2=NN(c3ccccc3)[C@@H](C(=O)N3CCOC3=O)[C@@H]2c2ccc(F)cc2)c1,,inactive: -1.94%
C/C(Cn1nnc([N+](=O)[O-])n1)=N\NC(=O)c1ccc(O)cc1O,,inactive: 10.5%
CCCC(=O)c1cc(F)c(N2CCN(C(=O)OCC)CC2)cc1C,,inactive: -11.7%
O=C(COc1cccc(NC(=O)c2cccs2)c1)c1ccc(F)cc1,"inconclusive: 20.6 µM [inhibitor, single point]",
CCOC(=O)/C(N=Nc1ccc(C(=O)O)cc1[N+](=O)[O-])=C(\C)O,,inactive: 7.51%
Cc1cccc2c1cnn2C(=O)CCC(=O)NCc1ccc(F)cc1,,inactive: 1.52%
COc1ccc(S(=O)(=O)Nc2ccccc2OC)cc1NC(=O)CC1CC2CCC1C2 (configuration not stated),"inconclusive: 23.1 µM [inhibitor, partial curve, poor fit]",
Cc1cc(C)n(Cc2cccc(F)c2)c(=O)c1C#N,"inconclusive: 0.116 µM [inhibitor, single point]",
Cc1ccc(NS(=O)(=O)c2ccc(-c3cnc(C4CC4)o3)cc2)c(C)c1,,inactive: 3.72%
COc1cc(C(=O)N2CCN(S(=O)(=O)c3ccc(C)cc3C)CC2)ccc1OCC(=O)N1CCOCC1,active: 2.31 µM,
Cc1cc(C)nc(SCC(=O)N/N=C/c2cc(C)n(-c3ccccc3C)c2C)n1,,inactive: 12.2%
COc1ccc(N2CCN(CCNC(=O)Nc3ccc(C)cc3Cl)CC2)cc1,,inactive: -5.32%
O=C(N/N=C\c1ccc(F)cc1)c1csnn1,"inconclusive: 1.84 µM [activator, partial curve]",

SMILES,Potency,"activity change, negative = inhibition"
CN(C)c1ccc(C(=O)Nc2ccc(CN3CCS(=O)(=O)CC3)cc2)cc1,"inconclusive: 18.3 µM [activator, partial curve]",
CCC(CC)=NNc1cccc([N+](=O)[O-])c1,,inactive: 8.41%
COc1ccc(S(=O)(=O)NCCc2ccc(F)cc2)cc1,,inactive: 0.722%
COc1ccc(Cl)cc1NC(=O)c1cc(C)no1,,inactive: -2.3%
Cc1cc(Cl)cc(C)c1OCCn1ccnc1,"inconclusive: 23.1 µM [inhibitor, partial curve]",
O=C(CSc1n[nH]c(-c2ccccn2)n1)Nc1ccc(F)cc1,"inconclusive: 7.3 µM [inhibitor, partial curve]",
COc1ccc(N(C)C(=O)CN(C)S(=O)(=O)c2ccc3c(c2)c(=O)n(C)c(=O)n3C)c(OC)c1,,inactive: 8.98%
CC[n+]1ccc(/C=C/c2ccc(N(C)C)cc2)c2ccccc21,"inconclusive: 13 µM [inhibitor, partial curve, poor fit]",
COc1cccc(C(=O)CN2C(=O)C(C)(C)Oc3ccc(C(=O)N4CCCCCC4)cc32)c1,"inconclusive: 29.1 µM [inhibitor, partial curve, poor fit]",
O=C(Nc1ccccc1N1CCOCC1)C1=NN(c2ccccc2)C(=O)CC1,,inactive: -24.2%
Cc1ccc(NC(=S)NNC(=O)Nc2ccccc2)cc1,"inconclusive: 3.66 µM [activator, partial curve]",
O=C1c2ccccc2C(Nc2ccc3c(c2)OCCO3)N1Cc1ccc2c(c1)OCO2 (configuration not stated),"inconclusive: 13 µM [activator, single point]",
COc1ccc(-c2nc3ccccc3s2)cc1O,"inconclusive: 1 µM [activator, full curve, poor fit]",
COc1nn(CC(=O)N2N=C(C(F)F)CC2(O)C(F)F)cc1[N+](=O)[O-] (configuration not stated),,inactive: 12.6%
Cc1noc(C)c1CSc1nnc(-c2c[nH]c3ccccc23)n1-c1ccc(Cl)cc1,"inconclusive: 29.1 µM [activator, single point]",
CCCS(=O)(=O)N1CCC(C(=O)NC2CCC(C)CC2)CC1 (configuration not stated),"inconclusive: 20.6 µM [activator, partial curve]",
Cc1ccc(/C=C/C(=O)Nc2ccccc2C(N)=O)cc1,"inconclusive: 2.59 µM [activator, full curve]",
COc1ccc2[nH]c3c(N4CCN(Cc5ccc6c(c5)OCO6)CC4)ncnc3c2c1,active: 25.9 µM,
CC(=O)c1cccc(OCC(O)CNCCc2ccc(Cl)cc2)c1 (configuration not stated),,inactive: 0.151%
CC(=O)c1c(C)[nH]c(C(=O)OCCOc2ccccc2)c1C,"inconclusive: 0.461 µM [activator, full curve]",
CCOC(=O)c1[nH]c2ccc(OC)cc2c1NC(=S)N1CCN(c2ccccc2)CC1,"inconclusive: 3.66 µM [inhibitor, full curve]",
c1ccc(-c2nnc(-c3ccco3)o2)cc1,"inconclusive: 16.4 µM [activator, partial curve]",
Cc1nc2cc(C(=O)O)ccc2s1,"inconclusive: 10.3 µM [activator, partial curve]",
Cc1cccc(NC(=O)Nc2ccc(F)cc2)n1,"inconclusive: 20.6 µM [activator, partial curve]",

# An excerpt from above in order of length of the SMILES, descending:
SMILES,Potency,"activity change, negative = inhibition"
COc1ccc(N(C)C(=O)CN(C)S(=O)(=O)c2ccc3c(c2)c(=O)n(C)c(=O)n3C)c(OC)c1,,inactive: 8.98%
COc1ccc2[nH]c3c(N4CCN(Cc5ccc6c(c5)OCO6)CC4)ncnc3c2c1,active: 25.9 µM,
CN(C)c1ccc(C(=O)Nc2ccc(CN3CCS(=O)(=O)CC3)cc2)cc1,"inconclusive: 18.3 µM [activator, partial curve]",
Cc1cc(Cl)cc(C)c1OCCn1ccnc1,"inconclusive: 23.1 µM [inhibitor, partial curve]",

# Later entries

SMILES,Potency,"activity change, negative = inhibition"
C=CCn1c(SCc2ccc(C(=O)Nc3nccs3)cc2)nnc1-c1ccc(C)c(Cl)c1,"inconclusive: 25.9 µM [inhibitor, single point]",
CCc1ccc(CNc2ccc3c(c2)ncn3CC)cc1,"inconclusive: 13 µM [activator, partial curve]",
COc1ccc(C(=O)Nc2ccccc2N2CCCCC2)cc1[N+](=O)[O-],"inconclusive: 23.1 µM [inhibitor, partial curve, poor fit]",
COc1ccc(-n2nc(C(=O)NCC(=O)N(C)Cc3ccccc3)c3ccccc3c2=O)cc1,"inconclusive: 23.1 µM [inhibitor, partial curve]",
Fc1ccc(-c2nnn(Cc3nc4ccccc4s3)n2)cc1,"inconclusive: 16.4 µM [activator, single point]",
COc1ccc(-c2nnc(SC(C)C#N)o2)cc1 (configuration not stated),"inconclusive: 20.6 µM [activator, partial curve]",
O=C(Nc1cc(S(=O)(=O)Nc2ccccc2F)ccc1Cl)c1ccc(F)cc1F,,inactive: -14.7%
CCOc1ccc(-c2cn(S(=O)(=O)c3cccc4nsnc34)nc2N)cc1,"inconclusive: 20.6 µM [inhibitor, partial curve, poor fit]",
COc1ccccc1CNC(=O)Cn1c(=O)oc2cc(S(=O)(=O)N3CCCC3)ccc21,,inactive: -10.9%
COc1ccc(/C(C)=N\NC(=O)c2ccc3c(c2)OCO3)cc1OC,"inconclusive: 29.1 µM [activator, single point]",
Cc1cc(C(F)(F)F)c(C#N)c(SCC(=O)Nc2nc3ccccc3s2)n1,"inconclusive: 0.116 µM [activator, full curve]",
CC(=O)Nc1ccc(NC(=O)Nc2ccccc2)cc1,"inconclusive: 29.1 µM [activator, single point]",
COc1ccc(NC(=O)Nc2ccon2)c(OC)c1,"inconclusive: 23.1 µM [activator, partial curve, poor fit]",
O=C(CSc1ncn[nH]1)Nc1ccc(OCc2ccccc2)cc1,"inconclusive: 4.11 µM [activator, full curve]",
CN(C)c1ccc(NC(=O)Nc2csc3ccccc23)cc1,"inconclusive: 25.9 µM [activator, single point]",
COc1ccc(N2CCN(C(=O)Cc3ccc(Br)cc3)CC2)cc1,"inconclusive: 13 µM [inhibitor, partial curve, poor fit]",
O=C(NC1CCCCC1)c1n[nH]c2c1CCCCC2,"inconclusive: 0.112 µM [activator, full curve, poor fit]",
O=C(c1ccccc1)c1ccc(OCC(O)CN2CCCC2)cc1 (configuration not stated),,inactive: -15%
Cc1ccc(CSC2=CS(=O)(=O)c3ccccc3N2)cc1,,inactive: -5.55%
CCCCCCCC/C=C\CCCCCCCC(=O)NCCc1ccc(O)c(O)c1,,inactive: -2.79%
O=C(Nc1ccc(Br)cc1)Nc1cnccn1,"inconclusive: 14.6 µM [activator, partial curve, poor fit]",
CCc1nnc(NC(=O)/C=C/c2cccs2)s1,"inconclusive: 13 µM [activator, partial curve]",
CCc1cc2c(-c3ccccc3)cc(=O)oc2cc1OCC(=O)NCC1CCC(C(=O)O)CC1 (configuration not stated),"inconclusive: 23.1 µM [activator, single point]",
O=C(NCCc1ccccc1)c1ccccc1Cl,"inconclusive: 0.501 µM [activator, partial curve, poor fit]",
